Test results published in US20120034210A1, “COMPOSITIONS FOR POTENTIATING APOPOSIS SIGNALS IN TUMOUR CELLS” (INSTITUT BERGONIE, priority 2008, published 2012).
For at least one compound, name, drawing or mass did not settle the structure. Some entries share one result that the patent states for a list of compounds.

Tests used:
[1] = test system: Raji, BL2, Jurkat cell lines and activated PBL; assay: Apoptosis % by loss of mitochondrial membrane potential; type: cell-based, human; settings: tumour cell lines Raji, BAPTA-AM 1 μM
Procedure: 2 to 4.10^4 cells were deposited in wells in a 96-well plate. The cells were incubated, in the presence of the different reactants for the times specified, at 37° C. in a final volume of 100 or 200 μl. The apoptotic cells were identified in the cellular populations by measuring mitochondrial de-polarisation. […] These potentiometric probes allowed monitoring the variations of the mitochondrial membrane potential. […] Following cell treatment with the different drugs, the former were placed in the presence of TMRM or DIOC6 at 10 nM concentration, for 20 minutes at 37° C. then the fluorescence of the cells was analysed by flow cytometry.

[2] = test system: CD95; assay: CD95 capping (CD95-CAP), fluorescence confocal microscopy; type: cell-based, human; settings: decrease in [Ca2+]i for 60 minutes; no CD95L
Procedure: The cells were left to adhere on a slide pre-treated with poly-L-lysin (ESCO, VWR) for 5 minutes then incubated with the different reactants. The cells activated with the anti-Fas APO1-3 agonist antibody were washed and marked directly with the anti-mouse secondary antibody coupled with Alexa555 fluorochrome. The cells incubated with Rituximab (anti-CD20) were washed in a cold PBS buffer then fixed with a PBS/4% PFA (paraformaldehyde) solution for 15 min. […] The cells were washed in PBS medium then the slide was dried and the cells were placed in a mounting medium, Fluoroprep (Biomerieux) and analysed by fluorescence confocal microscopy (LSM SP5, Leica, Germany) with an x63 zoom. The DAPI (200 ng/ml) allowed colouring the nuclei.

Row | SMILES | apoptotic signal mediated by edelfosine in association with agent reducing intracellular calcium [1] | cells with CD95-CAP [2]
1 | CCCCCCCCCCCCCCCCCCOCC(COP(=O)([O-])OCC[N+](C)(C)C)OC (centres unmarked) [edelfosine] | allowed potentiating the apoptotic signal | 
2 | CC(=O)OCOC(=O)CN(CC(=O)OCOC(C)=O)c1ccccc1OCCOc1ccccc1N(CC(=O)OCOC(C)=O)CC(=O)OCOC(C)=O [BAPTA-AM, 1,2-bis-(o-Aminophenoxy)ethane-N,N,N′,N′-tetraacetic tetra-(acetoxymethyl) acid Ester] |  | up to 50%
